{"sequences": {"note": "The chains behind the UniProt entries cited, without tags or fusion partners.", "UniProt Q0JBA9, entry or part of it": "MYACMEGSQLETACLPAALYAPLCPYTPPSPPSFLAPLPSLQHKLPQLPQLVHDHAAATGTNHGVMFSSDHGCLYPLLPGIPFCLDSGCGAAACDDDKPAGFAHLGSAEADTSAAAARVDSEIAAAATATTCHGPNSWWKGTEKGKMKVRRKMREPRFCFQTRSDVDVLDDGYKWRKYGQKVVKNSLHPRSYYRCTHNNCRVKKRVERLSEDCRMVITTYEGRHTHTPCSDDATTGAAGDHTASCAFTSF"}, "source": "paper PMC7819943", "about": "“Rice protein-binding microarrays: a tool to detect cis-acting elements near promoter regions in rice”", "note": "This is one part of the list.", "data": [{"target": "OsWRKY34 (Oryza sativa, UniProt Q0JBA9 1-250)", "experiment": "protein-binding microarray (RPBM); PBS, 2% BSA, 51.3 ng/ul salmon testes DNA, 50 uM zinc acetate, 200 nM TF, 25 C, 1 h; high values mean tight binding", "settings": "protein: recombinant; tags: N-terminal polyhistidine and DsRed monomer fusion (pET32a); label: CyDye5-dUTP incorporated in the synthesized complementary strand; 3' TTTTT single-stranded linker to array surface; dsDNA, one strand shown", "summary_of_the_method": "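The binding signal is fluorescence intensity per feature, in arbitrary units, read on an Axon 4000B scanner. Polyhistidine- and DsRed-tagged transcription factors (N-terminal fusions) from E. coli BL21-CodonPlus were purified on Ni–NTA and applied at 200 nM for 1 h at 25 °C to a double-stranded, BSA-blocked custom Agilent array in buffer with 50 µM zinc acetate.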", "values": [{"sequence": "TAGCTAGAGTTGCAAGTTTGTTGGAGGATGTTTTTCTCTTCGGAGTCACCTAGTGCAG", "binding signal": "8420 fluorescence intensity (a.u.)"}, {"sequence": "ATCTTTCTCACAAAGTTTCTTGGTTCTGTGTCCAAGCTTACGGAGTCACCTAGTGCAG", "binding signal": "8850 fluorescence intensity (a.u.)"}, {"sequence": "AGGGAGAGAGAGAGAGAGAGAGAGAGAGGGGCAGCCACTCCGGAGTCACCTAGTGCAG", "binding signal": "8160 fluorescence intensity (a.u.)"}, {"sequence": "CTGCGGCCATCGTCCTGTTCCTCTTGGCCTCGCGTGCAGTCGGAGTCACCTAGTGCAG", "binding signal": "9130 fluorescence intensity (a.u.)"}, {"sequence": "ACGACAGATGCCGGTTTGTGATCATTTGTGTTGTTTAATTCGGAGTCACCTAGTGCAG", "binding signal": "11200 fluorescence intensity (a.u.)"}, {"sequence": "CCTGGTACACTACCTACCCTTTCTTTTGTTGTCCAATTCACGGAGTCACCTAGTGCAG", "binding signal": "9990 fluorescence intensity (a.u.)"}, {"sequence": "TTTTAATCTCATTTTTTTTAACGGTTTTGCTATAATTTTTCGGAGTCACCTAGTGCAG", "binding signal": "8850 fluorescence intensity (a.u.)"}, {"sequence": "ATTCGTCGTCGTCGTTGTTTTTTTCAACGTTGCAAATTGTCGGAGTCACCTAGTGCAG", "binding signal": "8090 fluorescence intensity (a.u.)"}, {"sequence": "AGTGACCCTTATCTCTTCACCTATCTCTCTCCCTTCCCCTCGGAGTCACCTAGTGCAG", "binding signal": "9580 fluorescence intensity (a.u.)"}, {"sequence": "CGTCCTCGAGTGCTGCCATGATAACCCAATCCACTAATTACGGAGTCACCTAGTGCAG", "binding signal": "11500 fluorescence intensity (a.u.)"}, {"sequence": "AGGCAACACATACAATGTATCACCTCTAACACACAAATACCGGAGTCACCTAGTGCAG", "binding signal": "8410 fluorescence intensity (a.u.)"}, {"sequence": "AAAAACTATTGACAAATGTAGACGTTACCAGTTTTTTCTACGGAGTCACCTAGTGCAG", "binding signal": "8160 fluorescence intensity (a.u.)"}, {"sequence": "CATTTTGAATATGGACAGTGTCGTTTTTTTCCCCTTAGAGCGGAGTCACCTAGTGCAG", "binding signal": "8860 fluorescence intensity (a.u.)"}, {"sequence": "GGGGAGGAATTTTTATGCTATTTTTTTTTCTTTTTTACCGCGGAGTCACCTAGTGCAG", "binding signal": "12900 fluorescence intensity (a.u.)"}, {"sequence": "GAAACCGTCGTAATACTCTCCGTCTTCCCATTCCAGTTCCCGGAGTCACCTAGTGCAG", "binding signal": "8860 fluorescence intensity (a.u.)"}, {"sequence": "CACCACACTTGACTACCTAACACCCACCAAGTACTCTTTTCGGAGTCACCTAGTGCAG", "binding signal": "8370 fluorescence intensity (a.u.)"}, {"sequence": "TTTTCACTAGAGTTTTGAACCATTGATTTCACATTTTTCCCGGAGTCACCTAGTGCAG", "binding signal": "8260 fluorescence intensity (a.u.)"}, {"sequence": "GCTGTGTCCCTTCACAGTTTCATTTGACCATTTTCTTCTTCGGAGTCACCTAGTGCAG", "binding signal": "12500 fluorescence intensity (a.u.)"}, {"sequence": "GCGACGCTACCATTTCCGTCCGTTTGTTCAACCAACTCTCCGGAGTCACCTAGTGCAG", "binding signal": "8910 fluorescence intensity (a.u.)"}, {"sequence": "GGCACGCGTGGAAATCGTTTCTACATCACACTGCCATATGCGGAGTCACCTAGTGCAG", "binding signal": "10600 fluorescence intensity (a.u.)"}, {"sequence": "TTATATGTTTAACTCAAAATTTTCCTTCAGTTTTTACTCACGGAGTCACCTAGTGCAG", "binding signal": "9580 fluorescence intensity (a.u.)"}, {"sequence": "CGTTTAGCTTTCGTTTTGTGCACGGCGGGCGAGCTGACCGCGGAGTCACCTAGTGCAG", "binding signal": "9100 fluorescence intensity (a.u.)"}, {"sequence": "CACCGTCGCCGGGACACACGCCGCCGCACCGCCTCCACCACGGAGTCACCTAGTGCAG", "binding signal": "8390 fluorescence intensity (a.u.)"}, {"sequence": "CTACAACTCATATGTCGCTTGACTTTTTTTTTTTGTCAAACGGAGTCACCTAGTGCAG", "binding signal": "11300 fluorescence intensity (a.u.)"}, {"sequence": "AATTGCATATACTGCTCATCTACTGCTTCATCTGTATGCACGGAGTCACCTAGTGCAG", "binding signal": "9130 fluorescence intensity (a.u.)"}, {"sequence": "AAAACCCCTCGTCTCCTCTCTCTTCTCTCGCCGTCTGCCGCGGAGTCACCTAGTGCAG", "binding signal": "8370 fluorescence intensity (a.u.)"}, {"sequence": "CGTTTTTGGCTATTTTTAATTTTTTTTTCTAATTTCTTTTCGGAGTCACCTAGTGCAG", "binding signal": "9040 fluorescence intensity (a.u.)"}, {"sequence": "AGCGCCAACAAGAATCTAGAGATAGTGGTCTTGTTTACTTCGGAGTCACCTAGTGCAG", "binding signal": "8900 fluorescence intensity (a.u.)"}, {"sequence": "ACTGTTTATAGGGTAGGGGTAAGGTTGTGTTCATATAGGTCGGAGTCACCTAGTGCAG", "binding signal": "11700 fluorescence intensity (a.u.)"}, {"sequence": "GGTGAACTTATTCCAATCTACAACAACAGTACGCACTTTCCGGAGTCACCTAGTGCAG", "binding signal": "9670 fluorescence intensity (a.u.)"}, {"sequence": "GCTTGACGCGTCGCTGATTCCGCCACTGATCATTTTTTTTCGGAGTCACCTAGTGCAG", "binding signal": "11800 fluorescence intensity (a.u.)"}, {"sequence": "TTTCATCGATTAATGTCAATATTGGATTATGTCTACATAACGGAGTCACCTAGTGCAG", "binding signal": "8300 fluorescence intensity (a.u.)"}, {"sequence": "GTTAGCTAGCCACACACCACCTCACTCGTGTTAGCTCGGACGGAGTCACCTAGTGCAG", "binding signal": "8700 fluorescence intensity (a.u.)"}, {"sequence": "CCGCCGCCCCAGCCGCCGTTGTCCTTCTTGCCCTTGCTCACGGAGTCACCTAGTGCAG", "binding signal": "11800 fluorescence intensity (a.u.)"}, {"sequence": "TTTCTTTGTGTTCTTTGATTTGTTCTTGGCAATCGCATCACGGAGTCACCTAGTGCAG", "binding signal": "8500 fluorescence intensity (a.u.)"}, {"sequence": "ATTATATGGGCCGCACTTACCACATTCGCTTTCCGGCCCACGGAGTCACCTAGTGCAG", "binding signal": "11500 fluorescence intensity (a.u.)"}, {"sequence": "CCGACTGATTATGCCGCCGCCGACTGGTGCTTTTATCTTCCGGAGTCACCTAGTGCAG", "binding signal": "9300 fluorescence intensity (a.u.)"}, {"sequence": "AGTCACTGGCCACCAATGATTTGCAGTAGTAACAGATATACGGAGTCACCTAGTGCAG", "binding signal": "8190 fluorescence intensity (a.u.)"}, {"sequence": "TTCGGTTGAACCTCGTCGATCTCTATCTTTTTCTTACTCTCGGAGTCACCTAGTGCAG", "binding signal": "8250 fluorescence intensity (a.u.)"}, {"sequence": "CGACACGGTCTCTAAAACACAACTTTGACTTCTTTTTTCTCGGAGTCACCTAGTGCAG", "binding signal": "9090 fluorescence intensity (a.u.)"}, {"sequence": "TGGTACTATACCTGTCTTGGCCGTTTCCTTTGCTGGTTGTCGGAGTCACCTAGTGCAG", "binding signal": "8410 fluorescence intensity (a.u.)"}, {"sequence": "GGCAGTATTGTGGGTGGTTTCGTCCGACGTGGAGGATTGACGGAGTCACCTAGTGCAG", "binding signal": "10400 fluorescence intensity (a.u.)"}, {"sequence": "GTCAATTTGGTTTGTAATCTTGTAGTAGATCTGTTTGTACCGGAGTCACCTAGTGCAG", "binding signal": "9390 fluorescence intensity (a.u.)"}, {"sequence": "GAATTTCATATGATTTTTTCGATAACTATTCATATGATCCCGGAGTCACCTAGTGCAG", "binding signal": "8990 fluorescence intensity (a.u.)"}, {"sequence": "ACAAAACATGGTCGTCACAGTTGGGTTCAGGCTTTAATTTCGGAGTCACCTAGTGCAG", "binding signal": "9810 fluorescence intensity (a.u.)"}, {"sequence": "TTGGAGGGTGTTGACCTAGTCTGTAGGGTTGACGTGACGCCGGAGTCACCTAGTGCAG", "binding signal": "8460 fluorescence intensity (a.u.)"}, {"sequence": "AAGCAGAGGAAGAGAACCCATCCATCCAACCATTCATAAACGGAGTCACCTAGTGCAG", "binding signal": "9130 fluorescence intensity (a.u.)"}, {"sequence": "CTCGCGTCCGCTGCCTATTTCTGCCTCCGCCACGCCCACGCGGAGTCACCTAGTGCAG", "binding signal": "10700 fluorescence intensity (a.u.)"}, {"sequence": "CTAATCCCCTCTAGCTAGCCTCTTTTTTCTCCATTTGTTTCGGAGTCACCTAGTGCAG", "binding signal": "11100 fluorescence intensity (a.u.)"}, {"sequence": "TCGGAGAGGGGCTTGTTCGTTTCTTCTTCCTCGCGCCGCGCGGAGTCACCTAGTGCAG", "binding signal": "9950 fluorescence intensity (a.u.)"}, {"sequence": "TTTACAATGGTATCTATGTGTTGTTTTTGTGTGTGTGTGTCGGAGTCACCTAGTGCAG", "binding signal": "10100 fluorescence intensity (a.u.)"}, {"sequence": "GGATGCTTTTGCTGTGCCGGCGCCGCGTGGTTCTTCGTTTCGGAGTCACCTAGTGCAG", "binding signal": "9030 fluorescence intensity (a.u.)"}, {"sequence": "AATCTACACCCCTAAACCTTTCTATGACGTTACAACGCACCGGAGTCACCTAGTGCAG", "binding signal": "9050 fluorescence intensity (a.u.)"}, {"sequence": "ATCCATTTGACACACGAACACACACATACACTACACTCTCCGGAGTCACCTAGTGCAG", "binding signal": "9640 fluorescence intensity (a.u.)"}]}]}
